Measured values: the supplement of paper PMC10849652
Some of the results follow.

The chains behind the UniProt entries cited, without tags or fusion partners. Where a name states a change or a piece, a line headed by the entry shows the natural chain unless it says otherwise.
UniProt P05165: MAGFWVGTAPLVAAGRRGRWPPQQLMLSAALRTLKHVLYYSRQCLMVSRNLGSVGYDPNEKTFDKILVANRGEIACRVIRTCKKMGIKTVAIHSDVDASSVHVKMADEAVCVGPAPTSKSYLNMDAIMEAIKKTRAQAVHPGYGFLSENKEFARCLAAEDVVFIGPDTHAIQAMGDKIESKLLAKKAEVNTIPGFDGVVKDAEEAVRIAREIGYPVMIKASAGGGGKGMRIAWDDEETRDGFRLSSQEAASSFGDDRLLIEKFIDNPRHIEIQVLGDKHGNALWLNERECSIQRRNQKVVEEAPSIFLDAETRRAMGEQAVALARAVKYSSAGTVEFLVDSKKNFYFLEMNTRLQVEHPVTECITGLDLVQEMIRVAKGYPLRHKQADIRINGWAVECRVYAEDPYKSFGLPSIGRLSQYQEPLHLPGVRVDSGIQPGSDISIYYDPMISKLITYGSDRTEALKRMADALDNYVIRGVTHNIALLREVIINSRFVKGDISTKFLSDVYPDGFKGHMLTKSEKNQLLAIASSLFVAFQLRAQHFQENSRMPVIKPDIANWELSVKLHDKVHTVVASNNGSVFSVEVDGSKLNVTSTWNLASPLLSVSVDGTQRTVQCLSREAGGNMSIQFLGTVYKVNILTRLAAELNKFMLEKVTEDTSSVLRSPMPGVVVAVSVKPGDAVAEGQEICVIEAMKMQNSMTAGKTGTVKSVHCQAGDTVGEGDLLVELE
UniProt Q9NWT1: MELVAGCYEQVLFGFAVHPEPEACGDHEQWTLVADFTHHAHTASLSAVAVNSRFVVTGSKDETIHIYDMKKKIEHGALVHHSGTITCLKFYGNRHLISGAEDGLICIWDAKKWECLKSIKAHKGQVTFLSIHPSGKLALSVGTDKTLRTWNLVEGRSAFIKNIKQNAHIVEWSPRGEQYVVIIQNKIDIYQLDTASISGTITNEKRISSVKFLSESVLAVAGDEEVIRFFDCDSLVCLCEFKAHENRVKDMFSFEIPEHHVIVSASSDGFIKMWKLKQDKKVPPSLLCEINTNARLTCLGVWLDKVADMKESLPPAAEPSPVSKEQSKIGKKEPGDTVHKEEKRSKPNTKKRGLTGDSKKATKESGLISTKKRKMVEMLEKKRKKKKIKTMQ
UniProt Q8WW12: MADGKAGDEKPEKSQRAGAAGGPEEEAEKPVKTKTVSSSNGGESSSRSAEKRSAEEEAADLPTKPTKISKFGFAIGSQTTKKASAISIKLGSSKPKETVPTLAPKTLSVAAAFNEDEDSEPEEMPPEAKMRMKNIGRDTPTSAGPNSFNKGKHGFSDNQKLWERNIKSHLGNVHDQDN
UniProt P13667: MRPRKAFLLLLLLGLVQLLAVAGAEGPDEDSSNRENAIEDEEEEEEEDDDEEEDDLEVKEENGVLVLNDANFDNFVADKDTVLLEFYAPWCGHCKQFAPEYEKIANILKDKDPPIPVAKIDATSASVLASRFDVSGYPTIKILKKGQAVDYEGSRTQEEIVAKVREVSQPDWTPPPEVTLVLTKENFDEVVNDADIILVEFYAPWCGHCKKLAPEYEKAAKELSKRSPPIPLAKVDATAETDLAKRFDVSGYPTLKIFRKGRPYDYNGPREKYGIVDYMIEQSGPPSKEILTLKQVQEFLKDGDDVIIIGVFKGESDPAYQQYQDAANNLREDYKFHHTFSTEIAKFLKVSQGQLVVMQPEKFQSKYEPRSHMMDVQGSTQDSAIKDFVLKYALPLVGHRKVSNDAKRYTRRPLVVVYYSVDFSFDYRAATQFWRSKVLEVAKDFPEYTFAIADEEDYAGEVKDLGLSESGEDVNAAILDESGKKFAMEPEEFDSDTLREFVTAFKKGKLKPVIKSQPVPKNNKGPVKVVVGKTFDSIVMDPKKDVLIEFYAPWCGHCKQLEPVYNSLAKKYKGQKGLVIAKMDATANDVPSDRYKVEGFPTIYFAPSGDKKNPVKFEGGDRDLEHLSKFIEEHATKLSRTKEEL
UniProt O75381, whole entry, looked up: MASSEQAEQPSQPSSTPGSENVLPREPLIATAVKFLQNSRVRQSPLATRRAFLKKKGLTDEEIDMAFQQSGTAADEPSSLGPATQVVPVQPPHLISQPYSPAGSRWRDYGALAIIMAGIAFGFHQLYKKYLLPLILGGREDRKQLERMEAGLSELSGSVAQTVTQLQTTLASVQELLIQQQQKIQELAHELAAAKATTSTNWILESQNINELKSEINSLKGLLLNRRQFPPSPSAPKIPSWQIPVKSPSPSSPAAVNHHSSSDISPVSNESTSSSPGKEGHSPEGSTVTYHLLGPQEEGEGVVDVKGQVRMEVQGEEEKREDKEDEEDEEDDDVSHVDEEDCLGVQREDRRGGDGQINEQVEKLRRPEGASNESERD
UniProt Q8NBM8: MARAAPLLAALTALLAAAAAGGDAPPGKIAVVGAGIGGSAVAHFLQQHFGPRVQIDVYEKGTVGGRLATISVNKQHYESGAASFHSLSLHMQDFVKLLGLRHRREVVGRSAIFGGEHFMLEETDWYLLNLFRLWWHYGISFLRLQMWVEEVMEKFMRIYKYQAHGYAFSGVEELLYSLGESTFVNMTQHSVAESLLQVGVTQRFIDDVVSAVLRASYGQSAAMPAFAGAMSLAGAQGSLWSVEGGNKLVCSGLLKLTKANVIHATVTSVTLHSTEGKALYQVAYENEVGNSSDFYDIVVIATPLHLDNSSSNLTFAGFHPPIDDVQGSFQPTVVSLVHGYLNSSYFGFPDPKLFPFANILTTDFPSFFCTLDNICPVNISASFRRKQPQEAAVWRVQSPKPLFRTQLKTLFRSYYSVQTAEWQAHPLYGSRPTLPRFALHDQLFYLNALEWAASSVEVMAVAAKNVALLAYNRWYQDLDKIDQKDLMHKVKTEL
UniProt O14737: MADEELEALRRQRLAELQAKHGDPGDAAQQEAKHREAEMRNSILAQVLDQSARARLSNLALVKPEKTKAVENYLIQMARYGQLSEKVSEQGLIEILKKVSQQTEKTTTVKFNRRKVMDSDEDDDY
UniProt Q6ZW49, whole entry, looked up: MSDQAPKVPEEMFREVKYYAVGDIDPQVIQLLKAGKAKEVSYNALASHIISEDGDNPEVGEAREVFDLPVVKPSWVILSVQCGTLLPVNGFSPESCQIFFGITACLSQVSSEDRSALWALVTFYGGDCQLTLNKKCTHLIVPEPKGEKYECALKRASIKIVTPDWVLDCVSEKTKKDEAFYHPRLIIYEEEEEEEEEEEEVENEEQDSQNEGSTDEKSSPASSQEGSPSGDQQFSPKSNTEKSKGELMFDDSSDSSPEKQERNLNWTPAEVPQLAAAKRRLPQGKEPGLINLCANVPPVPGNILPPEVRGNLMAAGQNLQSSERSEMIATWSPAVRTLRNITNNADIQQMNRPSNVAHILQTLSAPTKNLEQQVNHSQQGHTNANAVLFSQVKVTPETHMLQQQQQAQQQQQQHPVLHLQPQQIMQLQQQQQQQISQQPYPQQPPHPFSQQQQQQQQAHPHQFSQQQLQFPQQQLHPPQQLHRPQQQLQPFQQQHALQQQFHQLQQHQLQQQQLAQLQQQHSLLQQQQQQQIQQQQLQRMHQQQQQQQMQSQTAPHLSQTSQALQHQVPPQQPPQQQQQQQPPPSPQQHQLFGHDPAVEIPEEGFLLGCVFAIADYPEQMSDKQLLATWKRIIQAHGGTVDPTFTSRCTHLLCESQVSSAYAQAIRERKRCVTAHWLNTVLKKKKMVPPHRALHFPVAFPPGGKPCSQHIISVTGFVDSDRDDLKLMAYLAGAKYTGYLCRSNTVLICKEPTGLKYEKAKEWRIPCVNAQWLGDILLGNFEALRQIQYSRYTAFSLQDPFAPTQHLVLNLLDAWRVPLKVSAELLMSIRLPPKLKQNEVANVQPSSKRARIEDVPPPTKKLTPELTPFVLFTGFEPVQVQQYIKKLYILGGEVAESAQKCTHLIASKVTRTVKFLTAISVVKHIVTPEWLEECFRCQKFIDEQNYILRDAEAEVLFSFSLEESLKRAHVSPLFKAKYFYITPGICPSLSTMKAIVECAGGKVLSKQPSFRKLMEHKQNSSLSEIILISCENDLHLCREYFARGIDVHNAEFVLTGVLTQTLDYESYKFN
UniProt Q9UNF0: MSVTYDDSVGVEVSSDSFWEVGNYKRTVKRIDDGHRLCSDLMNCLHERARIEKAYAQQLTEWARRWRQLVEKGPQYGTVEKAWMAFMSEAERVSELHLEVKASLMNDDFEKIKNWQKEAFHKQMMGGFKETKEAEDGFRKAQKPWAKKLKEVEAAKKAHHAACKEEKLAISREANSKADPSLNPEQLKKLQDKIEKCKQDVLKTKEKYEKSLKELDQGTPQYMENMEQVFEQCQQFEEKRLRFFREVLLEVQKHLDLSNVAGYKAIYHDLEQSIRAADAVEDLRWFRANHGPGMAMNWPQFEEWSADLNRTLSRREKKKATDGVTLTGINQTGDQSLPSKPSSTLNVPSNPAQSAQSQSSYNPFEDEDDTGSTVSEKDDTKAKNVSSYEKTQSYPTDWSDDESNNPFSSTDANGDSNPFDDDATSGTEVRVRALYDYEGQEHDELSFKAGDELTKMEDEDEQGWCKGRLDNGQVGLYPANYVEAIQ
UniProt Q9H0N5: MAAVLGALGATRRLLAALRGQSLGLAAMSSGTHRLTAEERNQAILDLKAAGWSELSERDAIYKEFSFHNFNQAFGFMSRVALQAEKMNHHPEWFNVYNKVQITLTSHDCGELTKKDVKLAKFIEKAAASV
UniProt A6NDB9: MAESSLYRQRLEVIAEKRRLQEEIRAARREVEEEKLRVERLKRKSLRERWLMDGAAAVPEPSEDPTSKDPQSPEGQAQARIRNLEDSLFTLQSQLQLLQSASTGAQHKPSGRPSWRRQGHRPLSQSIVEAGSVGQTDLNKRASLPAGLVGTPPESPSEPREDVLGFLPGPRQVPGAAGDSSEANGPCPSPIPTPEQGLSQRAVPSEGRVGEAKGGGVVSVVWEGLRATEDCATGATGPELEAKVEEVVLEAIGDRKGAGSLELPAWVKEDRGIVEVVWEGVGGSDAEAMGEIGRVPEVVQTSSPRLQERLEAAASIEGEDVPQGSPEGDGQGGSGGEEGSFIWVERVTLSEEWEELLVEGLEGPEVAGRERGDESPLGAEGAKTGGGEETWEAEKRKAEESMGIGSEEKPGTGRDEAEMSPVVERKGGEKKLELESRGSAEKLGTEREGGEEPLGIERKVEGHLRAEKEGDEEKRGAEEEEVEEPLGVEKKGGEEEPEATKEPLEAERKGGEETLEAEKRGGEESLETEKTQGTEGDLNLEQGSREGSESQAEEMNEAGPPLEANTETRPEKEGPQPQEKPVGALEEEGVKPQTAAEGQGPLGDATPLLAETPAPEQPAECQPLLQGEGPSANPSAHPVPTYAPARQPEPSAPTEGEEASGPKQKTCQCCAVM
UniProt Q15084: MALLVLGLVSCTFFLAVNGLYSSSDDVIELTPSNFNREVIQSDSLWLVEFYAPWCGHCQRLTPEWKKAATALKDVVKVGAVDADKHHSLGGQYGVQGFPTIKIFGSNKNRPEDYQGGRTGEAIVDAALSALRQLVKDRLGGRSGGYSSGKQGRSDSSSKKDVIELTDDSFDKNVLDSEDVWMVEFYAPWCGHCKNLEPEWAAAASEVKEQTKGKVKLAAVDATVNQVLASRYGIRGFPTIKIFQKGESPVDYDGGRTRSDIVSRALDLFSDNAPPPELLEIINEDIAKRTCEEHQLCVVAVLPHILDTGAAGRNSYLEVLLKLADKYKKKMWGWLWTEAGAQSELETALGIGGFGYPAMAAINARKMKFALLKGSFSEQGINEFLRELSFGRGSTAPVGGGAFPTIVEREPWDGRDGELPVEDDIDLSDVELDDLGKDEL
UniProt Q9BTK6, whole entry, looked up: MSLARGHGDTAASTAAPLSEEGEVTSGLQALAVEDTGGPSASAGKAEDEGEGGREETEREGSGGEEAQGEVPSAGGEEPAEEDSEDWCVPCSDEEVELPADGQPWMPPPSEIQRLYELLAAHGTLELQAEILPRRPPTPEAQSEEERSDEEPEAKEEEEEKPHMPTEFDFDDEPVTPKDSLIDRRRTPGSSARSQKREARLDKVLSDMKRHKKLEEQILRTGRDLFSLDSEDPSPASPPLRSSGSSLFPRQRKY
UniProt P08559, whole entry, looked up: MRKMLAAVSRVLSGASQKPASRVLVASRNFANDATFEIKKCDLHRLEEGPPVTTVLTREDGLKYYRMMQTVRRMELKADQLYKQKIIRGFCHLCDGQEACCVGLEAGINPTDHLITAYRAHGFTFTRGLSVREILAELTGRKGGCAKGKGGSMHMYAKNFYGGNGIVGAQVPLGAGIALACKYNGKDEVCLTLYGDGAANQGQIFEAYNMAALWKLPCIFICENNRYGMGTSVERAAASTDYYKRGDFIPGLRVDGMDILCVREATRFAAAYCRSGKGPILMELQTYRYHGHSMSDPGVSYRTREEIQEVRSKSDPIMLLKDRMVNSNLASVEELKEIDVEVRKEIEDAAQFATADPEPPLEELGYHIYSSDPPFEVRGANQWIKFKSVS
UniProt Q9NUG6, whole entry, looked up: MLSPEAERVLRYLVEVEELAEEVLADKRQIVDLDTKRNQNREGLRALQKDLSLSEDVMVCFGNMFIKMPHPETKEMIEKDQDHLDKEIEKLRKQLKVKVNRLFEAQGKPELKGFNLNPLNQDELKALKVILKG

Key:
Assay in all cases: log2 fold change, soluble protein after heating vs DMSO (PISA); higher = thermal stabilisation; K562 cells, 10 uM, 30 min; active = over 0.2 and 3.5 SD of the protein, either way, in both replicates (recomputed)
[1] = compound: CS(=O)(=O)c1ccc(-c2cnc(N)c(C(=O)Nc3ccccc3)n2)cc1
Method in brief: (§1)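 For each measurement, 10 μM compound was applied for 30 min to K562 cells at 2×10^6 cells/mL. Aliquots were heated for 3 min across 48°C-58°C, pooled, and extracted in PBS with 0.5% NP-40 at 4°C; the supernatant after 21,000xg for 90 min was soluble protein. This was quantified by TMTpro 16plex LC-MS/MS with channel sums equalised, and thermal stability was reported relative to control samples from duplicates, on a log2 fold-change scale.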

crizotinib = compound: C[C@@H](Oc1cc(-c2cnn(C3CCNCC3)c2)cnc1N)c1c(Cl)ccc(F)c1Cl [crizotinib]
Method in brief: as §1

[2] = compound: C[C@@H]1COCCN1C2=NC(=NC(=C2)C3(CC3)S(=O)(=O)C)C4=C5C=CNC5=CC=C4
Method in brief: as §1

[3] = compound: C[C@H](C1=CC=C(C=C1)C(=O)NC2=C3C=CNC3=NC=C2)N
Method in brief: as §1

duvelisib = compound: C[C@H](Nc1ncnc2nc[nH]c12)c1cc2cccc(Cl)c2c(=O)n1-c1ccccc1 [duvelisib]
Method in brief: as §1

gandotinib = compound: Cc1cc(Nc2cc(CN3CCOCC3)c3nc(C)c(Cc4ccc(Cl)cc4F)n3n2)n[nH]1 [gandotinib]
Method in brief: as §1

tozasertib = compound: Cc1cc(Nc2cc(N3CCN(C)CC3)nc(Sc3ccc(NC(=O)C4CC4)cc3)n2)n[nH]1 [tozasertib]
Method in brief: as §1

[4] = compound: Cc1cc(SCc2sc(-c3ccc(C(F)(F)F)cc3)nc2C)ccc1OCC(=O)O
Method in brief: as §1

doramapimod = compound: Cc1ccc(-n2nc(C(C)(C)C)cc2NC(=O)Nc2ccc(OCCN3CCOCC3)c3ccccc23)cc1 [doramapimod]
Method in brief: as §1

ispinesib = compound: Cc1ccc(C(=O)N(CCCN)[C@@H](c2nc3cc(Cl)ccc3c(=O)n2Cc2ccccc2)C(C)C)cc1 [ispinesib]
Method in brief: as §1

bafetinib = compound: Cc1ccc(NC(=O)c2ccc(CN3CC[C@H](N(C)C)C3)c(C(F)(F)F)c2)cc1Nc1nccc(-c2cncnc2)n1 [bafetinib]
Method in brief: as §1

[5] = compound: Cc1cccc(CC(=O)N2CCc3c2ccc(-c2cn(C)c4ncnc(N)c24)c3F)n1
Method in brief: as §1

nilotinib = compound: Cc1cn(-c2cc(NC(=O)c3ccc(C)c(Nc4nccc(-c5cccnc5)n4)c3)cc(C(F)(F)F)c2)cn1 [nilotinib]
Method in brief: as §1

[6] = compound: Cc1nc(Nc2n[nH]c3c2CN(C(=O)N[C@H](CN(C)C)c2ccccc2)C3(C)C)c2sccc2n1
Method in brief: as §1

dasatinib = compound: Cc1nc(Nc2ncc(C(=O)Nc3c(C)cccc3Cl)s2)cc(N2CCN(CCO)CC2)n1 [dasatinib]
Method in brief: as §1

[7] = compound: Cc1ncc(-c2ccnc(Nc3ccc(S(C)(=O)=O)cc3)n2)n1C(C)C
Method in brief: as §1

[8] = compound: Cn1cc(-c2ccc3c(c2)CCN3C(=O)Cc2cccc(C(F)(F)F)c2)c2c(N)ncnc21
Method in brief: as §1

[9] = compound: Cn1cc(-c2ccc3nnc(C(F)(F)c4ccc5ncccc5c4)n3n2)cn1
Method in brief: as §1

tipifarnib = compound: Cn1cncc1[C@@](N)(c1ccc(Cl)cc1)c1ccc2c(c1)c(-c1cccc(Cl)c1)cc(=O)n2C [tipifarnib]
Method in brief: as §1

mubritinib = compound: FC(F)(F)c1ccc(/C=C/c2nc(COc3ccc(CCCCn4ccnn4)cc3)co2)cc1 [mubritinib]
Method in brief: as §1

Measured: log2 fold change

PCCA (UniProt P05165)
inactive: [1] 0.002 | crizotinib -0.023 | [2] 0.044 | [3] 0.037 | duvelisib 0.056 | gandotinib 0.039 | tozasertib -0.074 | [4] -0.011 | doramapimod 0.042 | ispinesib -0.083 | bafetinib 0.03 | [5] -0.026 | nilotinib 0.018 | [6] 0.027 | dasatinib -0.083 | [7] -0.08 | [8] 0.034 | [9] 0.035 | tipifarnib -0.013 | mubritinib 0.056

PAK1IP1 (UniProt Q9NWT1)
inactive: [1] -0.067 | crizotinib 0.073 | [2] -0.476 | [3] 0.469 | duvelisib -0.202 | gandotinib 0.294 | tozasertib 0.054 | [4] 0.024 | doramapimod 0.34 | ispinesib -0.079 | bafetinib 0.364 | [5] 0.009 | nilotinib 0.035 | [6] 0.21 | dasatinib 0.196 | [7] 0.046 | [8] -0.308 | [9] -0.175 | tipifarnib 0.168 | mubritinib -0.137

PCNP (UniProt Q8WW12)
inactive: [1] 0 | crizotinib 0.001 | [2] -0.002 | [3] 0.001 | duvelisib -0.005 | gandotinib 0.018 | tozasertib -0.027 | [4] -0.035 | doramapimod -0.036 | ispinesib 0.082 | bafetinib -0.036 | [5] -0.036 | nilotinib 0.041 | [6] 0.01 | dasatinib 0.081 | [7] 0.025 | [8] -0.005 | [9] 0.01 | tipifarnib -0.035 | mubritinib 0.022

PDIA4 (UniProt P13667)
inactive: [1] 0 | crizotinib 0.041 | [2] -0.061 | [3] 0.041 | duvelisib -0.042 | gandotinib 0.028 | tozasertib 0.038 | [4] 0.047 | doramapimod 0.033 | ispinesib 0.022 | bafetinib 0.036 | [5] 0 | nilotinib -0.005 | [6] 0.049 | dasatinib -0.007 | [7] -0.035 | [8] -0.067 | [9] -0.027 | tipifarnib 0.049 | mubritinib -0.125

PEX14 (UniProt O75381)
inactive: [1] -0.012 | crizotinib 0.016 | [2] 0.053 | [3] -0.056 | duvelisib 0.028 | gandotinib 0 | tozasertib -0.001 | [4] 0.008 | doramapimod 0.077 | ispinesib 0.05 | bafetinib -0.026 | [5] 0 | nilotinib -0.01 | [6] 0.004 | dasatinib 0.047 | [7] -0.004 | [8] -0.012 | [9] 0.042 | tipifarnib 0.003 | mubritinib -0.031

PANK2 (UniProt Q9BZ23)
inactive: [1] 0.046 | crizotinib 0.107 | [2] 0.06 | [3] -0.144 | duvelisib -0.015 | gandotinib 0.006 | tozasertib 0 | [4] 0.05 | doramapimod -0.024 | ispinesib -0.063 | bafetinib -0.032 | [5] -0.049 | nilotinib -0.025 | [6] 0.016 | dasatinib 0.015 | [7] 0.001 | [8] 0.096 | [9] 0.018 | tipifarnib 0.005 | mubritinib -0.155

Quoted from the results shown (2 entries):
PDIA4 (UniProt P13667)
inactive: [1] 0 | crizotinib 0.041 | [2] -0.061 | [3] 0.041 | duvelisib -0.042 | gandotinib 0.028 | tozasertib 0.038 | [4] 0.047 | doramapimod 0.033 | ispinesib 0.022 | bafetinib 0.036 | [5] 0 | nilotinib -0.005 | [6] 0.049 | dasatinib -0.007 | [7] -0.035 | [8] -0.067 | [9] -0.027 | tipifarnib 0.049 | mubritinib -0.125

PEX14 (UniProt O75381)
inactive: [1] -0.012 | crizotinib 0.016 | [2] 0.053 | [3] -0.056 | duvelisib 0.028 | gandotinib 0 | tozasertib -0.001 | [4] 0.008 | doramapimod 0.077 | ispinesib 0.05 | bafetinib -0.026 | [5] 0 | nilotinib -0.01 | [6] 0.004 | dasatinib 0.047 | [7] -0.004 | [8] -0.012 | [9] 0.042 | tipifarnib 0.003 | mubritinib -0.031

Remaining list, next part

PCYOX1L (UniProt Q8NBM8)
inactive: [1] -0.021 | crizotinib 0.138 | [2] 0.098 | [3] -0.023 | duvelisib 0.002 | gandotinib 0.016 | tozasertib 0.024 | [4] -0.028 | doramapimod 0.03 | ispinesib 0.166 | bafetinib -0.006 | [5] 0.013 | nilotinib 0.005 | [6] 0.041 | dasatinib 0.053 | [7] -0.032 | [8] 0.085 | [9] 0.029 | tipifarnib 0.044 | mubritinib 0.013

PDCD5 (UniProt O14737)
inactive: [1] -0.071 | crizotinib -0.027 | [2] 0.056 | [3] -0.081 | duvelisib -0.006 | gandotinib 0.001 | tozasertib 0.015 | [4] -0.044 | doramapimod -0.015 | ispinesib 0.016 | bafetinib 0.089 | [5] -0.01 | nilotinib 0.017 | [6] 0.03 | dasatinib 0.055 | [7] -0.021 | [8] 0 | [9] 0.009 | tipifarnib 0.003 | mubritinib 0.044

PAXIP1 (UniProt Q6ZW49)
inactive: [1] 0.015 | crizotinib -0.144 | [2] 0.029 | [3] 0.138 | duvelisib 0.046 | gandotinib -0.083 | tozasertib 0.057 | [4] 0.094 | doramapimod 0.025 | ispinesib -0.238 | bafetinib -0.036 | [5] 0.075 | nilotinib -0.019 | [6] -0.018 | dasatinib -0.113 | [7] -0.053 | [8] -0.261 | [9] 0.107 | tipifarnib 0.02 | mubritinib 0.025

PACSIN2 (UniProt Q9UNF0)
inactive: [1] 0.029 | crizotinib -0.186 | [2] 0.044 | [3] 0.067 | duvelisib -0.024 | gandotinib -0.081 | tozasertib -0.044 | [4] 0.172 | doramapimod 0.036 | ispinesib -0.199 | bafetinib 0.058 | [5] 0.1 | nilotinib -0.12 | [6] -0.192 | dasatinib -0.249 | [7] -0.093 | [8] 0.069 | [9] 0.03 | tipifarnib -0.018 | mubritinib 0.189

PCBD2 (UniProt Q9H0N5)
inactive: [1] 0.019 | crizotinib 0.103 | [2] 0.025 | [3] -0.044 | duvelisib 0.095 | gandotinib 0.013 | tozasertib -0.007 | [4] -0.053 | doramapimod -0.027 | ispinesib 0.03 | bafetinib -0.019 | [5] -0.002 | nilotinib 0.023 | [6] 0.01 | dasatinib 0.041 | [7] -0.004 | [8] 0.04 | [9] 0.081 | tipifarnib 0.003 | mubritinib 0.084

PALM3 (UniProt A6NDB9)
inactive: [1] 0.025 | crizotinib 0.036 | [2] 0.058 | [3] -0.062 | duvelisib 0.029 | gandotinib -0.028 | tozasertib -0.046 | [4] -0.12 | doramapimod -0.073 | ispinesib 0.123 | bafetinib 0.024 | [5] -0.089 | nilotinib 0.066 | [6] -0.055 | dasatinib 0.07 | [7] -0.035 | [8] -0.007 | [9] -0.062 | tipifarnib 0.033 | mubritinib 0.029

PDIA6 isoform 2 (UniProt Q15084)
inactive: [1] 0.011 | crizotinib 0.036 | [2] -0.016 | [3] -0.022 | duvelisib -0.003 | gandotinib -0.037 | tozasertib -0.021 | [4] -0.027 | doramapimod -0.014 | ispinesib 0.05 | bafetinib -0.055 | [5] -0.086 | nilotinib 0 | [6] -0.004 | dasatinib 0.067 | [7] -0.02 | [8] -0.035 | [9] 0.057 | tipifarnib 0.052 | mubritinib 0.016

PAGR1 (UniProt Q9BTK6)
inactive: [1] -0.046 | crizotinib 0.001 | [2] -0.146 | [3] -0.058 | duvelisib -0.083 | gandotinib 0.097 | tozasertib 0.057 | [4] -0.045 | doramapimod 0.055 | ispinesib -0.134 | bafetinib 0.118 | [5] 0 | nilotinib 0.011 | [6] -0.018 | dasatinib 0.011 | [7] 0.037 | [8] -0.041 | [9] 0.005 | tipifarnib -0.145 | mubritinib 0.015

PDHA1 isoform 4 (UniProt P08559)
inactive: [1] 0.052 | crizotinib -0.041 | [2] -0.114 | [3] 0.206 | duvelisib -0.052 | gandotinib -0.005 | tozasertib 0.022 | [4] 0.197 | doramapimod 0.109 | ispinesib -0.113 | bafetinib 0.245 | [5] 0.131 | nilotinib -0.018 | [6] 0.085 | dasatinib -0.005 | [7] -0.056 | [8] -0.162 | [9] 0.047 | tipifarnib 0.102 | mubritinib 0.137

PDRG1 (UniProt Q9NUG6)
inactive: [1] -0.022 | crizotinib -0.06 | [2] -0.054 | [3] 0.009 | duvelisib 0.014 | gandotinib 0.018 | tozasertib -0.05 | [4] -0.004 | doramapimod -0.008 | ispinesib 0.151 | bafetinib 0.017 | [5] -0.001 | nilotinib 0.003 | [6] -0.014 | dasatinib 0.047 | [7] -0.002 | [8] 0.018 | [9] -0.063 | tipifarnib -0.013 | mubritinib 0.044
